Experimental data: US20230406915A1 (HJB HANGZHOU, published 2023)
Residue numbers refer to the chain shown, from its start. Results are given in words; binding and its absence hold for the method and conditions named. Some binding calls cover weakened binding; strength is not graded here. Values belong to the binder of their own block, whether it stands above or below them.

Assays:
Assay in all cases: BLI (Octet), self-association, table heading
M-751 = biological target: M-751
M-747 = biological target: M-747
M-755 = biological target: M-755

binding (M-751): binds
B1: M-751 (antibody, V domains shown)
VH: QVQLVQSGAEVKKPGSSVKVSCKASGYTFTNYWMNWVRQAPGQGLEWMGMIHPSDSETRLNQKFQGRVTITVDKSTSTAYMELSSLRSEDTAVYYCAREGRLGLRSYAMDYWGQGTLVTVSS
VL: DIQMTQSPSSLSASVGDRVTITCRSSQSLLNSSNQKNYLAWYQQKPGKVPKLLIYFASTRESGVPSRFSGSGSGTDFTLTISSLQPEDVATYFCQQHYITPLTFGGGTKVEIKR
notes: also called candidate antibody

binding (M-747): binds
B2: M-747 (antibody, human IgG1, kappa, V domains shown)
VH: B1 VH with A9S, V11L, S16A, Q65K, G66D
VL: DIVMTQSPDSLAVSLGERATINCKSSQSLLNSSNQKNYLAWYQQKPGQPPKLLVYFASTRESGVPDRFSGSGSGTDFTLTISSLQAEDVAVYFCQQHYITPLTFGGGTKVEIKR
notes: Humanized anti-DKK2 parental antibody; also called parental antibody; parental molecule

binding (M-755): binds
B3: M-755 (antibody, V domains shown)
VH: B1 VH with S16A, F64L, S84R, E89D
VL: B1 VL with V49A, V89F
notes: as for B1
